Data taken from publication PMC8726653.
No constants are given. Whether binding was seen depends on the method and setting. In cells and extracts the contact can be indirect. Some entries that bind do so weakly or less than the wild type.

Amino acid sequences for entries named in this document (tags omitted).
UniProt O95721: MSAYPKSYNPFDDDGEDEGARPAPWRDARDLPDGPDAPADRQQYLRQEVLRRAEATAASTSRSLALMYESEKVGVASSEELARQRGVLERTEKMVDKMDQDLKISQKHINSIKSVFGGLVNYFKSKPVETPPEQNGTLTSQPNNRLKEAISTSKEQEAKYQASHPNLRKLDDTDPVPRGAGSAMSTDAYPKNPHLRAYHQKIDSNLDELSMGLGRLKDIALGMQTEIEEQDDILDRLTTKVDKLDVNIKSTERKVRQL

B1: VAMP8 (protein, UniProt O70404 1-101)
chain: MEEASGSAGNDRVRNLQSEVEGVKNIMTQNVERILSRGENLDHLRNKTEDLEATSEHFKTTSQKVARKFWWKNVKMIVIICVIVLIIVILIILFATGTIPT
B2: STX17 (protein, UniProt Q9D0I4 1-301)
chain: MSEDEEKVKLRRLEPAIQKFTKIVIPTDLERLRKHQINIEKYQRCRIWDKLHEEHINAGRTVQQLRSNIREMEKLCLKVHKDDLVLLKRMIDPVKEAAATATAEFLQLHLESVEELKKQVNDEELLQPSLTRSTTVDGVLHTGEAEAASQSLTQIYALPEIPQDQNAAESWETLEADLIELSHLVTDMSLLVSSQQEKIDSIADHVNSAAVNVEEGTKNLQKAAKYKLAALPVAGALIGGVVGGPIGLLAGFKVAGIAAALGGGVLGFTGGKLIQRRKQKMMEKLTSSCPDLPSQSDKKRS

Target: GFP-SNAP29 (UniProt O95721)
Assay: co-IP; cleared lysates of L929 cells stably expressing GFP-SNAP29; untreated, TQ (10 ng/ml TNF + 30 µM QVD) for indicated times, or TQ plus 5 µM GSK'872 or 5 µM necrostatin-1 for 4 h; anti-GFP beads; blot

Row | Binder | binding
1 | B1 | binds
2 | B2 | binds
